The target of test [1] is SNAP/FLAG-tagged human GLP-1R (human) (UniProt P43220). Description: co-IP; anti-FLAG M2 magnetic beads, 1 hour at 4 °C, on lysates of INS-1 832/3 SNAP/FLAG-hGLP-1R or SNAP/FLAG-hGIPR cells treated with vehicle, 100 nM exendin-4 for 5 minutes (also a panel of GLP-1RAs; also with dominant negative dynamin 1/2 K44A) or 100 nM GIP; western blot. In general terms: A western blot detects proteins with antibodies after separation by electrophoresis.

Protein sequences, listed by entry. Tags and fused reporters are not part of them. Residues count along the entry.
UniProt P43220, residues 24-463: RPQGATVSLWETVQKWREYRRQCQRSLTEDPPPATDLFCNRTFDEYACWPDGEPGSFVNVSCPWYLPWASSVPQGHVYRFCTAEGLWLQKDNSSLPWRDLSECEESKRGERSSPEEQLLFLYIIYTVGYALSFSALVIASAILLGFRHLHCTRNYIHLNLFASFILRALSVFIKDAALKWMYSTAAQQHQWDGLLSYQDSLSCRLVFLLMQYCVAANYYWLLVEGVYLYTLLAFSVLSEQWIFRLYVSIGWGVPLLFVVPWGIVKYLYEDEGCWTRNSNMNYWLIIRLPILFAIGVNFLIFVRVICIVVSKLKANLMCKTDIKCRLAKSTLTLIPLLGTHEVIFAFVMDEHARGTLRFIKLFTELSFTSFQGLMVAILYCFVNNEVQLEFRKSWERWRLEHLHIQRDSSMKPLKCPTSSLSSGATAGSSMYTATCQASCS
UniProt O35659, residues 22-463: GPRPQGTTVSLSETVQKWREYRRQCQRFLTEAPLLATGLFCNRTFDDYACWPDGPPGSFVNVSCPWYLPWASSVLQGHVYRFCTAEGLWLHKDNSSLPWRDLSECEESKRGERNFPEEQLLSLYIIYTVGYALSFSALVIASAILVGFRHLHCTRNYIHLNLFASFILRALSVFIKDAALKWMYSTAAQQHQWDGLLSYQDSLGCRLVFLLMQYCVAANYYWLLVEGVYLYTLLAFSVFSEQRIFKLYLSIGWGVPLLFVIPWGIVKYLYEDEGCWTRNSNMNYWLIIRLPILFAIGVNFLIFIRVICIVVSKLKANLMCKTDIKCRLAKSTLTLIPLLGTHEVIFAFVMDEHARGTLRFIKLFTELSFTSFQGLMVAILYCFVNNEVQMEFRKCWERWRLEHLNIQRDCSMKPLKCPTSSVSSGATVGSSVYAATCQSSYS
UniProt Q9Z269: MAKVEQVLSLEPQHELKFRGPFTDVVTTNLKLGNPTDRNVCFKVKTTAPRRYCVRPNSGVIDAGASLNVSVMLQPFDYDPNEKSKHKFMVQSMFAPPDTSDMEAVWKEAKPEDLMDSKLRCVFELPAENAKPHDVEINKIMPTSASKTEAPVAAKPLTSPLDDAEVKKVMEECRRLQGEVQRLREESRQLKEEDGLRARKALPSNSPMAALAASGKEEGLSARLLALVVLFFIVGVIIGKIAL
UniProt Q9QY76: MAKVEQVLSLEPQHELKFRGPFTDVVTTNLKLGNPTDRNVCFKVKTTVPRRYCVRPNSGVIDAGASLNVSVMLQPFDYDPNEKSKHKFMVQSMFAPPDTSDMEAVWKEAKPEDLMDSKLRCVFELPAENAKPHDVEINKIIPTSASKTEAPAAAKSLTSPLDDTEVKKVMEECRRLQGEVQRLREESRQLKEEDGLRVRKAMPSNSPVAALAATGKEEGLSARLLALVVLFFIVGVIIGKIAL
UniProt P0C6C0: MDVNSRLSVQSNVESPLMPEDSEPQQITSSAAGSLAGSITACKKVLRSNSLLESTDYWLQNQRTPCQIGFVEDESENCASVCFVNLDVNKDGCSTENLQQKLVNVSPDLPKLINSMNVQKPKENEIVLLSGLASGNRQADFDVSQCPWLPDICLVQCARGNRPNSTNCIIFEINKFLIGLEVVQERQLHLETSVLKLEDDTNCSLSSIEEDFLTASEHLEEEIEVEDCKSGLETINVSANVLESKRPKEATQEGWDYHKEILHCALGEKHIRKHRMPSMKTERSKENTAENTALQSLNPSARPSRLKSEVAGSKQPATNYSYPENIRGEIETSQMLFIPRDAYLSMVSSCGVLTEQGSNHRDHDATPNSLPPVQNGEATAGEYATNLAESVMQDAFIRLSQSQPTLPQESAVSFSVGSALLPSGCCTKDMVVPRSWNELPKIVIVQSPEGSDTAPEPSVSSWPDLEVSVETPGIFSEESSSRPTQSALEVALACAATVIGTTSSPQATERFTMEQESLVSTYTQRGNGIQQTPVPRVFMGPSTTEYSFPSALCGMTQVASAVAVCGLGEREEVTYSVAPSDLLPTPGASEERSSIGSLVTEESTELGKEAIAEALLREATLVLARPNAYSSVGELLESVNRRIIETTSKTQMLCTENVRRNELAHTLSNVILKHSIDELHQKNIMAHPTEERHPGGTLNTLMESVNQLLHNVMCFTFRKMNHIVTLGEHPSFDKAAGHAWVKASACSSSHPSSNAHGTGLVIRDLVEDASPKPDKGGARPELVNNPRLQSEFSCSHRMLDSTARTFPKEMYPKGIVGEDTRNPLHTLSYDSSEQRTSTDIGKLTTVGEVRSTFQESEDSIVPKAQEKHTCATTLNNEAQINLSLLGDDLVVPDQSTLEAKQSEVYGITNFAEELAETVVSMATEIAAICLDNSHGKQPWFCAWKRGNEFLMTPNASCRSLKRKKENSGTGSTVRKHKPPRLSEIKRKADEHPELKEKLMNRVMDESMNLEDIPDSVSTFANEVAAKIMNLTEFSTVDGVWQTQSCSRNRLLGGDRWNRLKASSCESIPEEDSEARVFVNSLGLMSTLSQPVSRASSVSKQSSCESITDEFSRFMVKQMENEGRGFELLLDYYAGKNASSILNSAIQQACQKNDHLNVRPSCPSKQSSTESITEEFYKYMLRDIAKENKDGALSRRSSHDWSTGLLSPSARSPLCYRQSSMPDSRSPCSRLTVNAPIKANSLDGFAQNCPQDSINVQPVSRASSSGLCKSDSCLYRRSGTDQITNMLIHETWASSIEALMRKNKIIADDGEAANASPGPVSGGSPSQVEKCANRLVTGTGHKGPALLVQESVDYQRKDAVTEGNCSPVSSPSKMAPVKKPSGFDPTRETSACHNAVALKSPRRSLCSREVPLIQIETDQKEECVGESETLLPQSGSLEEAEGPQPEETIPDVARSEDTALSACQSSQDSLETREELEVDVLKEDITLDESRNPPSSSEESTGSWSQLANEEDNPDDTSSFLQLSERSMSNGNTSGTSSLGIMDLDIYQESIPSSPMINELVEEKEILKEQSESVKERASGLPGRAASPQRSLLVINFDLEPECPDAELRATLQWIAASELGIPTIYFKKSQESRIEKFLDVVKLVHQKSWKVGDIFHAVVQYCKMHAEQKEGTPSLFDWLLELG
UniProt O95292: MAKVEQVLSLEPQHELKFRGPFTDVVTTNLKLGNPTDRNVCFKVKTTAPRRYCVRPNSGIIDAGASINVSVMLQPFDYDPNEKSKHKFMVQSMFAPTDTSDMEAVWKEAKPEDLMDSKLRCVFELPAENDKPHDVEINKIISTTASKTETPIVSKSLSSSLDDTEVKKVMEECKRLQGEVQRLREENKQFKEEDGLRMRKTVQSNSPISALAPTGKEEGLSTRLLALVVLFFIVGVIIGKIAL

The target in test [2] is endogenous GLP-1R (mouse islets) (mouse (endogenous in primary islets)) (UniProt O35659). As to the kind of experiment: proximity ligation; NaveniFlex Tissue MR Red kit on fixed mouse or human islets stimulated with vehicle or 100 nM exendin-4 for 10 minutes at 37 °C; antibody pairs against endogenous GLP-1R and VAPB or SPHKAP.
Test [3] deals with T1, SNAP/FLAG-tagged human GIPR (human) (UniProt P48546).
T1 sequence: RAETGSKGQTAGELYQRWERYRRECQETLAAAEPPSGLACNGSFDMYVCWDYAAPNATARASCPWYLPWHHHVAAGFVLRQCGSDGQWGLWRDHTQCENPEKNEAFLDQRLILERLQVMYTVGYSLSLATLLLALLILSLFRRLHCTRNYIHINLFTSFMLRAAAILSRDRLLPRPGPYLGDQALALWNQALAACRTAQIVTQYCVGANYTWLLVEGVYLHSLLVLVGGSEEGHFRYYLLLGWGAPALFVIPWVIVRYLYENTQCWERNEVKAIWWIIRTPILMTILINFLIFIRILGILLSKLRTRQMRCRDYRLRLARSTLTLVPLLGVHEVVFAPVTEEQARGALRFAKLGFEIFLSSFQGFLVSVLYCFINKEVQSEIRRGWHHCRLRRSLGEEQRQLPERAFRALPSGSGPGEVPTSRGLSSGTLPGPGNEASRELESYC
As to the kind of experiment: co-IP; anti-FLAG M2 magnetic beads, 1 hour at 4 °C, on lysates of INS-1 832/3 SNAP/FLAG-hGLP-1R or SNAP/FLAG-hGIPR cells treated with vehicle, 100 nM exendin-4 for 5 minutes (also a panel of GLP-1RAs; also with dominant negative dynamin 1/2 K44A) or 100 nM GIP; western blot.

Test [4] concerns the target endogenous GLP-1R (human islets) (human (endogenous in primary islets)) (UniProt P43220). Description: proximity ligation; NaveniFlex Tissue MR Red kit on fixed mouse or human islets stimulated with vehicle or 100 nM exendin-4 for 10 minutes at 37 °C; antibody pairs against endogenous GLP-1R and VAPB or SPHKAP.
Test [5] addresses SNAP/FLAG-hGLP-1R-NLuc (human) (UniProt P43220). As to the kind of experiment: FRET or BRET; NanoBRET in living INS-1 832/3 cells co-transfected with Venus-VAPB and GLP-1R-NanoLuc; 37 °C; 1 µM exendin-4 or exendin-F1, read for 30 minutes; ratio 535/460 nm, vehicle-subtracted.

No constants are given. Whether binding was seen depends on the method and setting. Binding seen in cells or lysates may run through a third protein. Some binding calls cover weakened binding; strength is not graded here. For part of these data: Where a sequence is shown, tags or fusion partners need not be part of it.

On to “endogenous VAPB (INS-1 832/3 cells) (from UniProt Q9Z269 1-243)”, for which the binding result in test [1] is recorded as “binds”.

Take “endogenous VAPB (mouse islets) (from UniProt Q9QY76 1-243)”: the binding result in test [2] is “binds”.

With “endogenous SPHKAP (INS-1 832/3 cells) (from UniProt P0C6C0 1-1683)”, the binding result in test [3] was “binds”.

As to “endogenous VAPB (human islets) (from UniProt O95292 1-243)”, the binding result in test [4] was “binds”.

Take Venus-VAPB (from UniProt O95292 1-243): the binding entry in test [5] is given as “binds”.

Regarding EGFP-VAPB (from UniProt O95292 1-243), in test [1], the binding result is “binds”.

Source of the values: PMC12696101.
